Measured values reported in PubChem BioAssay AID248 (DTP/NCI, 2004).
The list shows only some results of the screen, not a fair sample: it is rich in T/C values a quarter to a half above the control, in often repeated tests (any T/C) and in doses without a T/C. Further doses and runs are listed elsewhere. T/C gives the treated animals as a percentage of the vehicle group. Some entries give survivors of the animals treated and no T/C: the source files T/C as zero there, which appears to mark a toxic dose or a test without result, not a measured value. Some doses without a T/C left all or most animals alive at the check, yet need not have been tolerated: survival well below the control is almost never listed, so the zero probably covers shortened survival too. Counts of survivors are from the toxicity check (mostly the fifth day) where no day follows; animals may have died later. Schedule codes are those of the source, taken here to give the interval after Q, in days (D) or hours (H), and the number of doses after X. Some schedule codes hold Z or #, which are not explained here. Some molecules as drawn cover several salts, stereoisomers or complexes of the source; a dose is that of the sample tested. Some doses were run more than once; their values stand side by side, smallest first. Where survival is the endpoint, this PubChem deposit counts one and a half times the control or more as active, and values a quarter to a half above the control carry no call in these data; other NCI protocols may use other cut-offs. Marks such as (2×) stand for listed records that agree. Some T/C values are followed by the survivors on the day toxicity was checked, most often the fifth; without a count, all were alive then.

Tested on: L1210 leukemia ip in BDF1 mice, survival T/C
Assay: NCI In Vivo Anticancer Drug Screen. Data for tumor model L1210 Leukemia (intraperitoneal) in B6D2F1 (BDF1) mice
Details: T/C endpoint: mean survival time, higher T/C = longer survival
[1] = dose: 150.0 mg/kg/injection, schedule: Q01DX001 (ip), vehicle: saline
[2] = dose: 100.0 mg/kg/injection, schedule: Q01DX009 (ip), vehicle: Klucel (hydroxypropylcellulose) (HPC)
[3] = dose: 200.0 mg/kg/injection, schedule: Q01DX009 (ip), vehicle: Klucel (hydroxypropylcellulose) (HPC)
[4] = dose: 400.0 mg/kg/injection, schedule: Q01DX001 (ip), vehicle: carboxymethylcellulose (CMC)
[5] = dose: 400.0 mg/kg/injection, schedule: Q01DX001 (ip), vehicle: saline with Tween-80
[6] = dose: 400.0 mg/kg/injection, schedule: Q04DX003 (ip), vehicle: saline with Tween-80
[7] = dose: 500.0 mg/kg/injection, schedule: Q01DX Z (ip), vehicle: saline
[8] = dose: 3.0 mg/kg/injection, schedule: Q01DX Z (ip), vehicle: saline
[9] = dose: 5.0 mg/kg/injection, schedule: Q01DX Z (ip), vehicle: saline
[10] = dose: 400.0 mg/kg/injection, schedule: Q04DX003 (ip), vehicle: saline
[11] = dose: 100.0 mg/kg/injection, schedule: Q01DX001 (ip), vehicle: saline
[12] = dose: 200.0 mg/kg/injection, schedule: Q01DX001 (ip), vehicle: saline
[13] = dose: 400.0 mg/kg/injection, schedule: Q01DX001 (ip), vehicle: saline
[14] = dose: 400.0 mg/kg/injection, schedule: Q04DX002 (ip), vehicle: saline
[15] = dose: 400.0 mg/kg/injection, schedule: Q01DX009 (ip), vehicle: saline
[16] = dose: 200.0 mg/kg/injection, schedule: Q01DX009 (ip), vehicle: saline with Tween-80
[17] = dose: 400.0 mg/kg/injection, schedule: Q04DX003 (ip), vehicle: Klucel (hydroxypropylcellulose) (HPC)
[18] = dose: 80.0 mg/kg/injection, schedule: Q01DX001 (ip), vehicle: saline
[19] = dose: 200.0 mg/kg/injection, schedule: Q04DX002 (ip), vehicle: saline with Tween-80

With `C/C(=N/N=C(N)N)c1ccc(F)cc1` the survivor count (dose: 60.0 mg/kg/injection, schedule: Q01DX Z (ip), vehicle: carboxymethylcellulose (CMC)) was 1 of 6, the survivor count (dose: 120.0 mg/kg/injection, schedule: Q01DX Z (ip), vehicle: carboxymethylcellulose (CMC)) was 0 of 6 and the survivor count (dose: 120.0 mg/kg/injection, schedule: Q01DX Z (oral), vehicle: carboxymethylcellulose (CMC)) was 1 of 6.

For `CCCCCCCCCCCCCCCCCCNc1ccc(C(=O)OCC)cc1`, the survivor count [1] was 6 of 6.

For `O=C1CCCCC1CC1(O)C(=O)NC2CCC(Br)CC21` (centres undefined), the survivor count (dose: 100.0 mg/kg/injection, schedule: Q04DX002 (ip), vehicle: Klucel (hydroxypropylcellulose) (HPC)) was 3 of 3.

`CNC(=O)NNC(=O)CNC(=O)Nc1cccc(C(F)(F)F)c1` was tested, and the survivor count [2] was 1 of 6, the survivor count [3] was 0 of 6 and the survivor count (dose: 400.0 mg/kg/injection, schedule: Q01DX009 (ip), vehicle: Klucel (hydroxypropylcellulose) (HPC)) was 0 of 6.

`CN=C(NC)c1ccc(NC(=O)Nc2ccc(C)c(NC(=O)Nc3ccc(C(=NC)NC)cc3)c2)cc1` was tested, and the survivor count (dose: 36.0 mg/kg/injection, schedule: Q01DX Z (ip), vehicle: water) was 0 of 6.

With `CC(=S)N1CCCCC1` the survivor count (dose: 100.0 mg/kg/injection, schedule: Q01DX001 (ip), vehicle: carboxymethylcellulose (CMC)) was 0 of 4, the survivor count (dose: 200.0 mg/kg/injection, schedule: Q01DX001 (ip), vehicle: carboxymethylcellulose (CMC)) was 0 of 4 and the survivor count [4] was 0 of 4.

`COC1OC2COc3ccccc3OC2C2C1N2C(C)=O` (centres undefined) was tested, and the T/C (dose: 400.0 mg/kg/injection, schedule: Q04DX002 (ip), vehicle: Klucel (hydroxypropylcellulose) (HPC)) was 128 % of control.

In the case of `CCOC(=O)c1ccc(NC(=O)Nc2cccc3c(O)cccc23)cc1`, the survivor count (dose: 100.0 mg/kg/injection, schedule: Q04DX003 (ip), vehicle: saline with Tween-80) is reported as 6 of 6, the survivor count [5] is reported as 6 of 6 and the survivor count [6] is reported as 6 of 6.

In the case of `COc1cccc(/C=N/N=C(N)N)c1OC`, the survivor count (dose: 125.0 mg/kg/injection, schedule: Q01DX Z (ip), vehicle: saline) is reported as 5 of 6, the survivor count (dose: 250.0 mg/kg/injection, schedule: Q01DX Z (ip), vehicle: saline) is reported as 0 of 6 and the survivor count [7] is reported as 0 of 6.

With `O=P(N1CCCC1)(N1CC1)N1CC1` the T/C [8] was 147 % of control, the survivor count [8] was 6 of 6 and the T/C [9] was 140 % of control. The survivor count [9] was 6 of 6, the T/C (dose: 11.5 mg/kg/injection, schedule: Q01DX Z (ip), vehicle: saline) was 134 % of control and the survivor count (dose: 17.0 mg/kg/injection, schedule: Q01DX Z (ip), vehicle: saline) was 6 of 6.

For `Cc1c[n+]([O-])ccc1[N+](=O)[O-]`, the survivor count (dose: 200.0 mg/kg/injection, schedule: Q04DX003 (ip), vehicle: saline) was 3 of 6 and the survivor count [10] was 1 of 6.

In the case of `COc1ccc2nc3cc(Cl)ccc3c(NCC3(c4ccccc4)CCN(C)CC3)c2c1`, the survivor count (dose: 50.0 mg/kg/injection, schedule: Q04DX003 (ip), vehicle: saline) is reported as 5 of 6, the survivor count [11] is reported as 0 of 6 and the survivor count [12] is reported as 0 of 6. For the same molecule, the survivor count [13] was 0 of 6.

In the case of `C/C=C(\C)C(=O)O`, the survivor count (dose: 333.0 mg/kg/injection, schedule: Q01DX Z (ip), vehicle: saline) is reported as 0 of 6 and the survivor count [7] is reported as 0 of 6.

With `O=C(O)c1c(F)ccc([N+](=O)[O-])c1F` the survivor count [14] was 2 of 3.

`Nc1cccs1` was tested, and the T/C (dose: 32.5 mg/kg/injection, schedule: Q01DX009 (ip), vehicle: saline) was 125 % of control [4 of 6 alive], the T/C (dose: 65.0 mg/kg/injection, schedule: Q01DX009 (ip), vehicle: saline) was 136 % of control and the T/C (dose: 100.0 mg/kg/injection, schedule: Q01DX009 (ip), vehicle: saline) was 125 % of control. The T/C (dose: 150.0 mg/kg/injection, schedule: Q01DX009 (ip), vehicle: saline) was 129 % of control, the survivor count (dose: 200.0 mg/kg/injection, schedule: Q01DX009 (ip), vehicle: saline) was 3 of 6 and the survivor count [15] was 0 of 6.

In the case of `CC(=O)N(C)c1ccc(NC(=S)NC(=O)c2cccc([N+](=O)[O-])c2)cc1`, the T/C (dose: 100.0 mg/kg/injection, schedule: Q01DX009 (ip), vehicle: saline with Tween-80) is reported as 97 (2×), 101, 102 % of control, the T/C [16] is reported as 94, 95, 105 % of control and the survivor count [16] is reported as 6 of 6.

For `CCOP(=O)(N=S=O)OCC`, the survivor count (dose: 100.0 mg/kg/injection, schedule: Q04DX003 (ip), vehicle: Klucel (hydroxypropylcellulose) (HPC)) was 0 of 6, the survivor count (dose: 200.0 mg/kg/injection, schedule: Q04DX003 (ip), vehicle: Klucel (hydroxypropylcellulose) (HPC)) was 0 of 6 and the survivor count [17] was 0 of 6.

With `COC(=O)N1C2C3C(C)=C(C)C2(C)C3(C)S1(=O)=O` (centres undefined) the survivor count [17] was 5 of 6.

With `O=C1CCN(Cl)C(=O)N1Cl` the survivor count (dose: 40.0 mg/kg/injection, schedule: Q01DX001 (ip), vehicle: saline) was 2 of 6 and the survivor count [18] was 0 of 6.

`CN(C)Cc1cc(Cl)cc(CN(C)C)c1O` was tested, and the survivor count [19] was 0 of 3, the survivor count (dose: 400.0 mg/kg/injection, schedule: Q04DX002 (ip), vehicle: saline with Tween-80) was 0 of 3 and the survivor count [10] was 0 of 6.

`Clc1ccc(OCc2sc3ccc(Cl)cc3c2CN2CCCCC2)cc1` was tested, and the survivor count (dose: 200.0 mg/kg/injection, schedule: Q04DX003 (ip), vehicle: saline with Tween-80) was 6 of 6 and the survivor count [6] was 6 of 6.

With `C(/CCc1ccccc1)=N\Nc1nnc(N/N=C/CCc2ccccc2)c2ccccc12` the survivor count [4] was 2 of 4.

`C1O[C@@H]1[C@@H]1CO1` was tested, and the T/C (dose: 30.0 mg/kg/injection, schedule: Q01DX015 (ip), vehicle: saline) was 144 % of control, the T/C (dose: 50.0 mg/kg/injection, schedule: Q01DX015 (ip), vehicle: saline) was 126 % of control and the T/C (dose: 66.0 mg/kg/injection, schedule: Q01DX001 (ip), vehicle: saline) was 125 % of control. The T/C [11] was 138 % of control, the survivor count [11] was 2 of 4 and the survivor count [1] was 2 of 6 and 3 of 4. For the same molecule, the survivor count [12] was 0 of 6 and the survivor count [13] was 0 of 6.

For `O=c1[nH]c(=O)n(C2SC(CO)C(O)C2O)cc1F` (centres undefined), the survivor count (dose: 25.0 mg/kg/injection, schedule: Q04DX003 (ip), vehicle: saline) was 6 of 6.

In the case of `CCCCCCCN(CCCCCCC)CC(O)c1cc2ccc(Cl)cc2c2cccnc12` (centres undefined), the survivor count [3] is reported as 0 of 6 and the survivor count [17] is reported as 5 of 6.

With `C=C1CC(C)(C)C(c2ccccc2)OC1=O` (centres undefined) the survivor count [5] was 0 of 3.

`O=C1OC(c2ccc([N+](=O)[O-])cc2)=N/C1=C\c1ccc2c(c1)OCO2` was tested, and the survivor count [19] was 3 of 3.

`O=C(O)c1ccc2ccccc2n1.[Cu+2]` was tested, and the survivor count [12] was 1 of 6 and the survivor count [13] was 0 of 6.

`CCCCCCCCC(=O)CCCCC` was tested, and the survivor count [15] was 6 of 6.

In the case of `O=C1c2cc([N+](=O)[O-])ccc2-c2ccc([N+](=O)[O-])cc21`, the survivor count [2] is reported as 3 of 3.

In the case of `CNCCC(=O)C1CCC(OC)CC1` (centres undefined), the survivor count [14] is reported as 1 of 3.

In the case of `CC1(C)N=C(N)N=C(N)N1c1cccc(OCCOc2cccc(NC(=O)CBr)c2)c1`, the survivor count (dose: 40.0 mg/kg/injection, schedule: Q01DX009 (ip), vehicle: other) is reported as 0 of 6, the survivor count [18] is reported as 1 of 6 and the survivor count (dose: 80.0 mg/kg/injection, schedule: Q01DX009 (ip), vehicle: other) is reported as 0 of 6. For the same molecule, the survivor count [11] was 1 of 6, the survivor count [12] was 0 of 6 and the survivor count [13] was 0 of 6.
